Values from PubChem BioAssay AID504786 (Drosophila RNAi Screening Center, 2011)
The deposit covers about 21,000 reagents; below is an unselected part of those that have a named target and a result. 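Primary screen; positive scores mean lost reporter signal, so the sign may be inverted from the usual convention.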 Names joined by + are all predicted targets of the reagent. Further read-outs or replicates are left out here.

Purpose: 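Positive regulators of HIF-driven reporter output in Drosophila cells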 (primary screen)
System: Drosophila S2 cells with a stable HIF luciferase reporter
Knock-down reagent: long dsRNA against Drosophila genes, about 0.2 µg dsRNA per well of a 384-well plate
Time to read-out: three days of knock-down, then 20 h of DFO before reading
Treatment: desferrioxamine (DFO) at 100 µM, an iron chelator that mimics hypoxia, for 20 h
Measurement: 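HIF reporter luminescence in cells given 100 µM DFO for 20 h, using the mouse ldh-a hypoxia-response element, scored as per-plate z-scores; higher means greater loss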
Direction: z-score: higher = stronger loss of HIF reporter signal

z-score, replicate 1, by target gene and reagent
btd: DRSC18747 -0.3
Actn3: DRSC14106 -0.4
Jhbp6: DRSC11714 -0.3
Mccc1: DRSC15417 -0.2
CG31960: DRSC00281 -0.2
ScsbetaA: DRSC14446 -0.3
CG31948: DRSC00740 0
CG18418: DRSC08535 -0.4
vis + achi: DRSC07277 -0.2
betaNACtes3: DRSC20183 -0.5
CG31915: DRSC03000 -0.2
dar1: DRSC08049 -0.3; DRSC08233 -0.3
nod: DRSC18900 -0.5; DRSC20356 0.3
Cka: DRSC03476 -0.3
CG34155: DRSC13991 -0.1
RNaseZ: DRSC06845 -0.2
Jhe: DRSC07174 -0.3
Or56a: DRSC07495 -0.2
Galphas: DRSC04616 -0.3
Lar: DRSC01707 0.1; DRSC03361 -0.4
Smg5: DRSC03124 0.6
CG17597: DRSC02630 -0.3
Taf8: DRSC20363 -0.1
Nha1: DRSC02109 -0.3
CG10947: DRSC02111 -0.2
TBC1d7: DRSC15985 -0.6
ACXE: DRSC00847 -0.4
CG42824 + CG42823: DRSC13230 -0.3
shakB: DRSC20492 0; DRSC20585 -0.1
Mms19: DRSC12188 -0.4
Cand1: DRSC01992 -0.4
CG9284 (retired record): DRSC03899 -0.3; DRSC04536 -0.2
mei-W68: DRSC07649 -0.4
CG44153: DRSC02228 0; DRSC02229 0.2; DRSC02902 -0.2; DRSC02903 -0.2
CG12848: DRSC04128 -0.4
CG42238: DRSC03180 -0.3
Pss: DRSC11757 -0.2
CG12231: DRSC19445 -0.5
Ack: DRSC08135 -0.4
gw: DRSC17135 3.9; DRSC17160 4.8
Gip: DRSC18667 0.2
Dph3: DRSC14923 -0.3
Rpn13R: DRSC18404 -0.3
CG31807: DRSC01550 -0.1
Nepl18: DRSC14879 -0.2
mol: DRSC01431 1.4; DRSC01912 -0.2; DRSC02479 -0.3
CG6178: DRSC15984 -0.3
CAH14: DRSC04234 -0.3
Cyp9f2: DRSC16635 -0.4
RhoGAP100F: DRSC15409 -0.2
ase: DRSC18739 -0.2
Edg91: DRSC16657 -0.3
Sfp93F: DRSC13505 -0.1
CG32148: DRSC09338 -0.1
dlt: DRSC08705 0
Rga: DRSC12364 -0.7
CBP: DRSC17746 -0.3
CG1317: DRSC08305 -0.2
Ir47a: DRSC06215 -0.3
Lsp1alpha: DRSC20258 -0.2
CG12923: DRSC06237 -0.3
CG13403: DRSC19535 -0.1
Ziz: DRSC02506 -0.3; DRSC02976 -0.2
Snr1: DRSC12369 3.3
Rab23: DRSC12305 -0.4
ymp: DRSC13720 0.1; DRSC14482 -0.2
E(Pc): DRSC05281 1.7; DRSC07408 1.6
Vps4: DRSC19338 0.9
BaraB: DRSC06420 -0.3
